pIC50: −log10 of the molar value. Structures were worked out from names or drawings and are uncertain.
Target: BACE1 enzyme (Homo sapiens, UniProt P56817)
Experiment: Radioligand displacement (binding) assay with radiolabeled BACE inhibitor on HEK293-9B.A1 cell homogenate
Details: read-out: Activity Rating (activity based on IC50 values), HEK293-9B.A1 cell homogenate overexpressing BACE1
From the text: There are a number of methods by which inhibitors of the BACE enzyme can be identified experimentally. The enzyme can be obtained from membrane samples from natural tissues or cultured cells or can be expressed recombinantly in a host cell by well known methods of molecular biology. The whole enzyme or a portion thereof can be expressed, for example, in bacterial, insect or mammalian cells to obtain a catalytically active enzyme species. The enzymatic activity and/or ligand binding capability of the enzyme can be assessed within these membrane samples, or the enzyme can be purified to varying extents. As an illustrative example, the nucleic acid sequence encoding the pro and catalytic domains of human BACE can be appended on the 5′ end with an untranslated and signal sequence from the gene for acetylcholinesterase, and on the 3′ end with a sequence encoding a poly-histidine tag. This cDNA can then be expressed in Drosophila melanogaster S2 cells in which the signal and pro sequences of the transcribed/translated protein are removed by cellular proteases and the catalytic domain, appended by a C-terminal poly-histidine tag, is secreted out into the cellular medium. […]

By UniProt entry, the sequences of proteins in these tests, tags left out. Residues count along the entry.
UniProt P56817, 46-501 limits assumed: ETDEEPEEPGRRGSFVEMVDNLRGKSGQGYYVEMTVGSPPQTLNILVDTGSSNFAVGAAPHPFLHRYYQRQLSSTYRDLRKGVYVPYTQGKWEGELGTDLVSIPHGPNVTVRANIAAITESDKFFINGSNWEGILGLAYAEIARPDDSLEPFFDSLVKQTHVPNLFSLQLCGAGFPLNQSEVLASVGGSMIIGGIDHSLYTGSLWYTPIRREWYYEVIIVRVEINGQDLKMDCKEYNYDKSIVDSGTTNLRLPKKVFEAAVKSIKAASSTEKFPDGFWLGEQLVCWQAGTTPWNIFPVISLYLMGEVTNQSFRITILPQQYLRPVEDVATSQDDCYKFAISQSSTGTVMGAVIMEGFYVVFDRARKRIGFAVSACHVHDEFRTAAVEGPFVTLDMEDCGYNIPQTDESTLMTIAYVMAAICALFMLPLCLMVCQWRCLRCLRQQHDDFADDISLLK

SMILES: COc1ccc(-c2noc(C)c2C(=O)N=C(N)NCc2cc(Cl)c(NC(=O)CN3CCCCCC3c3ccccn3)c(Cl)c2)cc1 (stereo not shown)
- pIC50: > 7.00

Reference: US7273882B2, “Aminoacetamide acyl guanidines as β-secretase inhibitors” (priority 2006, dated 2007)
